Measured values as given in PMC11318672.
No constants are given. Whether binding was seen depends on the method and setting. In cells and extracts the contact can be indirect. Some entries that bind do so weakly or less than the wild type.

The chains behind the UniProt entries cited, without tags or fusion partners.
UniProt Q00765: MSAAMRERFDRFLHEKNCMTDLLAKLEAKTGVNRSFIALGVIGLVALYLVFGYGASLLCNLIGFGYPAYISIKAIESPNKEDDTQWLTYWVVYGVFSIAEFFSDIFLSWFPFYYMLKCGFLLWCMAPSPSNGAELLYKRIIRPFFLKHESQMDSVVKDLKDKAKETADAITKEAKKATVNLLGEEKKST

Columns and labels:
[1] = biological target: T1, endogenous MFN2 (human (endogenous in HEK293T)) (UniProt O95140); test: co-IP; endogenous MFN2 with REEP5 from HEK293T cells expressing mEmerald tagged REEP5 CT as competitor
T1 sequence: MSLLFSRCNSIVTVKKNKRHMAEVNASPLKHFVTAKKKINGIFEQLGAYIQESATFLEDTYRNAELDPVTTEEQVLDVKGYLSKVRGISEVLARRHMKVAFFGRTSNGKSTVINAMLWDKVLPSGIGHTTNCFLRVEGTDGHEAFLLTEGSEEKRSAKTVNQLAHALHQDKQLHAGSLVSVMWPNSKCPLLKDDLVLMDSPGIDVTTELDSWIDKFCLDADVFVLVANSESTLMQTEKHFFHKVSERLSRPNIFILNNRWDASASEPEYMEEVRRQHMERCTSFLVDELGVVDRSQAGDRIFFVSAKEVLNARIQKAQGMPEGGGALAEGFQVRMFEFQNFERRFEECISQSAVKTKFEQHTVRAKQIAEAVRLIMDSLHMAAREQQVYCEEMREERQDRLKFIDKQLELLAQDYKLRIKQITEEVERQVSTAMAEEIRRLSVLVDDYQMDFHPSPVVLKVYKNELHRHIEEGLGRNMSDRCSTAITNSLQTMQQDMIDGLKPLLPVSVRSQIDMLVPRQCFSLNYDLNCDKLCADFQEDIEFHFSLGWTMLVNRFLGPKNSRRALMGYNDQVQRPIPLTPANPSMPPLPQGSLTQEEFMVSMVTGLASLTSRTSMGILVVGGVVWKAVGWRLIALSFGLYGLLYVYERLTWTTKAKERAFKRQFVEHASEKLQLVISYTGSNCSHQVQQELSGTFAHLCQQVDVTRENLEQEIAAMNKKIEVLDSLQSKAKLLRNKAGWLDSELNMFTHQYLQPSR

[2] = biological target: T2, endogenous MFN1 (human (endogenous in HEK293T)) (UniProt Q8IWA4); test: co-IP; endogenous proteins in HEK293T lysate; rabbit anti-MFN1, anti-MFN2 or IgG at 4°C overnight, then Protein A/G beads 4 h; immunoblot
T2 sequence: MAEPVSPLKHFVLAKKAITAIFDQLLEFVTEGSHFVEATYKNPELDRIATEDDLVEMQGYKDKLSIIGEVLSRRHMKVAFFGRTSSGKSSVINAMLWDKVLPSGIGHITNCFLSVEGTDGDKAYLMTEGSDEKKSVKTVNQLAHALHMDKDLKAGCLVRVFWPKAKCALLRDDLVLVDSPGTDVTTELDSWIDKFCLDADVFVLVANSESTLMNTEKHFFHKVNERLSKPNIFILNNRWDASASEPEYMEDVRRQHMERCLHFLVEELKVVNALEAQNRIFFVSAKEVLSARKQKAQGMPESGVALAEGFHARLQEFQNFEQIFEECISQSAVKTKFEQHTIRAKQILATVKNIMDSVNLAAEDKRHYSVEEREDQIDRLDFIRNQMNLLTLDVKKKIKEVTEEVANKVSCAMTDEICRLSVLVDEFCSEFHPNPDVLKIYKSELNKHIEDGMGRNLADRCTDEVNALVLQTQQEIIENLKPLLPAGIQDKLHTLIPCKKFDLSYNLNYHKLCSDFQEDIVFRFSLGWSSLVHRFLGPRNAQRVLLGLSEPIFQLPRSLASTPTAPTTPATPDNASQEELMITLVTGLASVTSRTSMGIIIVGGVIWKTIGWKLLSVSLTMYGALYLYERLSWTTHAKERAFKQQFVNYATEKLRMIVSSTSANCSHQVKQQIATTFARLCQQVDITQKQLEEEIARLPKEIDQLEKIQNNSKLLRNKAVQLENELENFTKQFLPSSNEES

[3] = biological target: T1, endogenous MFN2 (human (endogenous in HEK293T)); test: as above

Measured: binding

endogenous REEP5 (from UniProt Q00765 1-189)
binds: [1] | [2] | [3]
